Compound in the experiment: Nc1nc2c(ncn2[C@@H]2O[C@H](COP(=O)(O)OP(=O)(O)OP(=O)(O)O)[C@@H](O)[C@H]2O)c(=O)[nH]1 [guanosine triphosphate]
Kind of experiment: NP40-soluble protein abundance relative to vehicle (solubility fold change) (ratio); higher = more soluble protein in presence of GTP. The essentials:
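Jurkat crude lysate prepared with a Dounce homogeniser was treated at eight concentrations spanning 0.1 to 10 mM, 10 min at room temperature then 3 min at 37 °C. Solubilisation with 0.8% NP40 and benzonase and ultracentrifugation preceded TMT labelling of the supernatant for LC-MS/MS. Fold change against the detergent-processed vehicle was determined per replicate from vsn-normalised intensities, across three independent experiments.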

The chains behind the UniProt entries cited, without tags or fusion partners. Where a name states a change or a piece, a line headed by the entry shows the natural chain unless it says otherwise.
UniProt Q9UIS9: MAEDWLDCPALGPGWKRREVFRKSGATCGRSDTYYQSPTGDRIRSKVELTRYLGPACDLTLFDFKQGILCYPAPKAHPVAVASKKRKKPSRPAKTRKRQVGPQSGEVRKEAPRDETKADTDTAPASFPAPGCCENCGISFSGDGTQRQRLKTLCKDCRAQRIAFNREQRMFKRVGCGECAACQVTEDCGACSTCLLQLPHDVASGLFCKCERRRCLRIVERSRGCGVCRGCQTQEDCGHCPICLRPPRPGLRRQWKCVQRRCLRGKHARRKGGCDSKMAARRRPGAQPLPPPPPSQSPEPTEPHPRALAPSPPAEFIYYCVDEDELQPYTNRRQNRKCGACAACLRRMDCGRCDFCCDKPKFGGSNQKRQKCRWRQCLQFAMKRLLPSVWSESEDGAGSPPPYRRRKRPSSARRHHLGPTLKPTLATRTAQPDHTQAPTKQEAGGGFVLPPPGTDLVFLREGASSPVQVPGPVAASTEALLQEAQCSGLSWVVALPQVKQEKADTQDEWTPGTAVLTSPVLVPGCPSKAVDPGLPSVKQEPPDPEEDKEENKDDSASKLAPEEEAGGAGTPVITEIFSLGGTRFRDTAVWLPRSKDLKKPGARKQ
UniProt Q9NWU1, whole entry: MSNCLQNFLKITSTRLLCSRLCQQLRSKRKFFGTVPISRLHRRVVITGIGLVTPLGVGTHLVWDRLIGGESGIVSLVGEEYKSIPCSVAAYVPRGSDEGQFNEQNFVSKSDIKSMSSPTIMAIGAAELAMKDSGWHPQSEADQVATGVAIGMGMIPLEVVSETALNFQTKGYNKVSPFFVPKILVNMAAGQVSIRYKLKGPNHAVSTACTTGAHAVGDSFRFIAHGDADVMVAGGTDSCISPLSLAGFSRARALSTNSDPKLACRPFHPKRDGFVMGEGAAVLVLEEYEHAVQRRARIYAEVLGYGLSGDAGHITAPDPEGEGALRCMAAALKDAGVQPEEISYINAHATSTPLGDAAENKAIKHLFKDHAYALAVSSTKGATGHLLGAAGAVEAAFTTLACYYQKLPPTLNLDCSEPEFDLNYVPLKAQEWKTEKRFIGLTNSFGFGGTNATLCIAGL
UniProt Q9NW82: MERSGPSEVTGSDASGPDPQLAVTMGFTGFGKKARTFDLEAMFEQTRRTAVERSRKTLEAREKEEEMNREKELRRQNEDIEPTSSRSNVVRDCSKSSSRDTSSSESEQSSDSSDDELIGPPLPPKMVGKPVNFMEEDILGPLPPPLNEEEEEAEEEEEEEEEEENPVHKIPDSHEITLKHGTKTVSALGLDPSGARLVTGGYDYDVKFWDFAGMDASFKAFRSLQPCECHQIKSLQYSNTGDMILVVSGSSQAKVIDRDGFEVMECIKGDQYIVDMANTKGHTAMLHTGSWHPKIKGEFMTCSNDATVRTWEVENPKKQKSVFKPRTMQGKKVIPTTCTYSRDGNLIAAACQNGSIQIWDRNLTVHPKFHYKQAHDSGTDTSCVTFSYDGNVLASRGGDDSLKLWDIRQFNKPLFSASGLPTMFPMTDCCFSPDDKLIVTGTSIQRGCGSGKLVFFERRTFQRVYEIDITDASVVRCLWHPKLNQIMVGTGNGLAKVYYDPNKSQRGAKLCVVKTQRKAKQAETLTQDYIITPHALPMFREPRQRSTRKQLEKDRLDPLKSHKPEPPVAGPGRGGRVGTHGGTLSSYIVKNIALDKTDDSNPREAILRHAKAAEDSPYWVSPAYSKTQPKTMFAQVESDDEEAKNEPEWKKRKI
UniProt Q9UBW8: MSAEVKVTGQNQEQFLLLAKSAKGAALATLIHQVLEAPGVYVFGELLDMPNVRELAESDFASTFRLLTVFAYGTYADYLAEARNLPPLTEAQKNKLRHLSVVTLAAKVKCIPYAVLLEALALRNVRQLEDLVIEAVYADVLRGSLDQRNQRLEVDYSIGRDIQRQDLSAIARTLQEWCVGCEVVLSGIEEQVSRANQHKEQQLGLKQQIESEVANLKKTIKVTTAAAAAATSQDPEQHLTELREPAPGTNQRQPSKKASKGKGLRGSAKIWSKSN
UniProt Q9NXN4: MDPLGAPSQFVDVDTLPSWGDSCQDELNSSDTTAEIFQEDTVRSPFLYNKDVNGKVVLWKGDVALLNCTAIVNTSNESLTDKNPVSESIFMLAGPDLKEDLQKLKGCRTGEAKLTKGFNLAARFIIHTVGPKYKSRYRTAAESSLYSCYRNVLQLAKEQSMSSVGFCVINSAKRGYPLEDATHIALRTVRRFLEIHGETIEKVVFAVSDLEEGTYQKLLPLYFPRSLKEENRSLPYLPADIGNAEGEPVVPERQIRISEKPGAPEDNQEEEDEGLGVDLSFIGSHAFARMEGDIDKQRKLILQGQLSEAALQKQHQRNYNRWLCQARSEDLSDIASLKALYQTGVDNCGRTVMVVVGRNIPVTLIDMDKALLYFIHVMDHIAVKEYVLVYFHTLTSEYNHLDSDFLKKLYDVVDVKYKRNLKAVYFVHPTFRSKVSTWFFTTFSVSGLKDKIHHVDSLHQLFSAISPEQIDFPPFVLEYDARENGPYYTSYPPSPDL
UniProt Q9NV35: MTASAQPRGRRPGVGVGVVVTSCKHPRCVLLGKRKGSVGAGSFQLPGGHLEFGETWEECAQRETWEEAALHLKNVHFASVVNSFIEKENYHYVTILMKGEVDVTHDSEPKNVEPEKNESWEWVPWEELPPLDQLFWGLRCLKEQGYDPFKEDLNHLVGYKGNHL
UniProt Q9UGU0: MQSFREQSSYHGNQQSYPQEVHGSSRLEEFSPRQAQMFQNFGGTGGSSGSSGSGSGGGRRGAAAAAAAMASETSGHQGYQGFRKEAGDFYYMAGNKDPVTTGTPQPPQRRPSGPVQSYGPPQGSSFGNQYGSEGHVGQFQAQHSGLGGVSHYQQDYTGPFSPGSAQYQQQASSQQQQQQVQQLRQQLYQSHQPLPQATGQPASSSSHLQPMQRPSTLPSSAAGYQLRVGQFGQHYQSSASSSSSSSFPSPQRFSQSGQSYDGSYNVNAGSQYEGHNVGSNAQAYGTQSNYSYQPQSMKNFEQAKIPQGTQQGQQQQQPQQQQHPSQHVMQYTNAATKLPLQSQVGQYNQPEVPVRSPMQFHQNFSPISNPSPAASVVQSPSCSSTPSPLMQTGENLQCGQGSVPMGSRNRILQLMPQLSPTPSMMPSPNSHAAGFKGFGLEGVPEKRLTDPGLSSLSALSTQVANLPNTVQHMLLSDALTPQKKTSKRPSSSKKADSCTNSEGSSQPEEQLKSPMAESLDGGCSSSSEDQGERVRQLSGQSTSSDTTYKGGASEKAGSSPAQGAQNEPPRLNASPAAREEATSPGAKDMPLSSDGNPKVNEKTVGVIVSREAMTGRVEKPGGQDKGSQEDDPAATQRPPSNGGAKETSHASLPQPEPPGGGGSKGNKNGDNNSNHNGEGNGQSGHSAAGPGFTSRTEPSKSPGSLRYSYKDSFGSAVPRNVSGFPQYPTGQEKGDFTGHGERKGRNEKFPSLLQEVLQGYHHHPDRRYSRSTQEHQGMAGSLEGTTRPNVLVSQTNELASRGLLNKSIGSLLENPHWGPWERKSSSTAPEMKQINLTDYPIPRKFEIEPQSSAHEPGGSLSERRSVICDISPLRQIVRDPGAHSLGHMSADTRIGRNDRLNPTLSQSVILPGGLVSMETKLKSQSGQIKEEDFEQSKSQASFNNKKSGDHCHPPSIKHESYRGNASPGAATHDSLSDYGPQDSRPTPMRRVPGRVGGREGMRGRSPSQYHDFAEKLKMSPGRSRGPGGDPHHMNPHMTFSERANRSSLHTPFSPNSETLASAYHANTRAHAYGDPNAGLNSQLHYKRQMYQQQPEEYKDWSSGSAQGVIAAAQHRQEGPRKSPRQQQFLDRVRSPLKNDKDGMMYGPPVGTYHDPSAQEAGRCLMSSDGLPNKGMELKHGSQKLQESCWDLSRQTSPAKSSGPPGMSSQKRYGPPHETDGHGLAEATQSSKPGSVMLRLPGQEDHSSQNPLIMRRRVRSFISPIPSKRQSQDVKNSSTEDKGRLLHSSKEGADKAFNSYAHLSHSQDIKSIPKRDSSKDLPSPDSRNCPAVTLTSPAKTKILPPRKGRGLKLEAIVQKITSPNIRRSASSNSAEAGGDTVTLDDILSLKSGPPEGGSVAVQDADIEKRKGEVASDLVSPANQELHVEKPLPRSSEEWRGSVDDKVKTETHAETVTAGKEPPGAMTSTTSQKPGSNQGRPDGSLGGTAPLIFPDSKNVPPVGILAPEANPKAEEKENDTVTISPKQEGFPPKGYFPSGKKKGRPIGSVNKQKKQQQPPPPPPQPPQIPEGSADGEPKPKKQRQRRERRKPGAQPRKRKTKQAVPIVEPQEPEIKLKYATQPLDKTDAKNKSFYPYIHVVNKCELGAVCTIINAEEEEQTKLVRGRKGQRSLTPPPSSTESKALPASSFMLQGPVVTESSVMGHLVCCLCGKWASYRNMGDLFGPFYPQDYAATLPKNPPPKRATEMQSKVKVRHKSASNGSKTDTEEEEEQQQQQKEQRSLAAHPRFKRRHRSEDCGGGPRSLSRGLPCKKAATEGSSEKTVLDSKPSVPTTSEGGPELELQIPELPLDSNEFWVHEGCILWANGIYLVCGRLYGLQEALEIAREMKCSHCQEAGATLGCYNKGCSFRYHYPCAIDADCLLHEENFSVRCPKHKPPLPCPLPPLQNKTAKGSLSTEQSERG
UniProt Q9UBD5: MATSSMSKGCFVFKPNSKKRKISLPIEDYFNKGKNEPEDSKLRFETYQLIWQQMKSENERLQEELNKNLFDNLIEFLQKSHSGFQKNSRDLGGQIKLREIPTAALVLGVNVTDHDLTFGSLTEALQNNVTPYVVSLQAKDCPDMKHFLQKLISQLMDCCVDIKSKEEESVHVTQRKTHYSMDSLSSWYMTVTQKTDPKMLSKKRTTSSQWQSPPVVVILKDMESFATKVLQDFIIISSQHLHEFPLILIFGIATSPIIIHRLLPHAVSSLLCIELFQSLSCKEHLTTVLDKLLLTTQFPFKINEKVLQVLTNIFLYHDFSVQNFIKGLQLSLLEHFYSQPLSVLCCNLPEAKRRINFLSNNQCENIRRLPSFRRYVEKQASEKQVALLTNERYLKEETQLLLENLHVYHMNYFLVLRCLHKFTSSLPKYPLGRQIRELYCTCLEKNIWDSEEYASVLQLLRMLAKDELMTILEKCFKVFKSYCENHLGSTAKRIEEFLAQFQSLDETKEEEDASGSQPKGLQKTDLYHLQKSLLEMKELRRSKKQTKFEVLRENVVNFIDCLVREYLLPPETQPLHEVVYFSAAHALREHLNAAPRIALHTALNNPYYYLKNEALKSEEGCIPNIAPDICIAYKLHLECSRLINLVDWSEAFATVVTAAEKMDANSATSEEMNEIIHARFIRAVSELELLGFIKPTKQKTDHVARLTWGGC
UniProt Q9UG63: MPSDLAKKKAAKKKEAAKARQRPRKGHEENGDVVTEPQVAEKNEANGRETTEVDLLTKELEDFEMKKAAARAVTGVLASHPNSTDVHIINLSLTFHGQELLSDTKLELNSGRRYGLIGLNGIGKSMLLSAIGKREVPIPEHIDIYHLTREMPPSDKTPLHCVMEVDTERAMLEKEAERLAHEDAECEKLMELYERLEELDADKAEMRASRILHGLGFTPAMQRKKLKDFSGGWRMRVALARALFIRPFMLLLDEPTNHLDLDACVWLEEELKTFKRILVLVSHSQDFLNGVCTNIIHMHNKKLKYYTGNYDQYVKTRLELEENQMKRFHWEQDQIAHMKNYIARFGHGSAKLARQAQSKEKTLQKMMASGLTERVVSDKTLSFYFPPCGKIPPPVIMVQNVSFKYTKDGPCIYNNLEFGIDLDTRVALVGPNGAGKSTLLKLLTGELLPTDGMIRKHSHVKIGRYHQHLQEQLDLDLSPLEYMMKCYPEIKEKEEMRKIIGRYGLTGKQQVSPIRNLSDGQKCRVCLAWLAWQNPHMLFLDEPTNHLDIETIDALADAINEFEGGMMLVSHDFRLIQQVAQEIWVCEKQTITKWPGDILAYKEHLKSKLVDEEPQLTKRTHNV
UniProt Q9NXV6: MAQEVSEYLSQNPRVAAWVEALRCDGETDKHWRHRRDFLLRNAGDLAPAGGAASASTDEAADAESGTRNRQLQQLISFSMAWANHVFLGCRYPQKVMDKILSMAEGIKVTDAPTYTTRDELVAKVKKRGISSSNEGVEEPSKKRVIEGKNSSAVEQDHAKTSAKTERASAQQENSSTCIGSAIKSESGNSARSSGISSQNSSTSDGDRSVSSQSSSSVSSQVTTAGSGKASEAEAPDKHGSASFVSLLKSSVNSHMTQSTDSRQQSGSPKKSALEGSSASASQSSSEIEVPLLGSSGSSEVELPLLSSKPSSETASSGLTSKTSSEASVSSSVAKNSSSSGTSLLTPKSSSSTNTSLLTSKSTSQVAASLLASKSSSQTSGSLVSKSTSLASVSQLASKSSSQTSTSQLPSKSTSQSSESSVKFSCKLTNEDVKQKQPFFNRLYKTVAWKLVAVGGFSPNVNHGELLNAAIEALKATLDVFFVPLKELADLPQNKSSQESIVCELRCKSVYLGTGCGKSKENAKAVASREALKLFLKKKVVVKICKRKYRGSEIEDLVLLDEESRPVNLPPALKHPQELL

± gives the standard deviation of the averaged measurements. Some of the results follow.

UniProt Q9UIS9 and related entries: the NP40-soluble protein abundance reads like this: (concentration: 0.1mM) 0.98 ± 0.054; (concentration: 0.5mM) 0.955 ± 0.069; (concentration: 1mM) 1.09 ± 0.014; (concentration: 2mM) 1.05 ± 0.046; (concentration: 4mM) 1.08 ± 0.037; (concentration: 6mM) 1.06 ± 0.068. Also, the NP40-soluble protein abundance came out at 1.07 ± 0.082 (concentration: 8mM) and 1.11 ± 0.048 (concentration: 10mM).
For UniProt Q9NX14 and related entries, the NP40-soluble protein abundance runs as follows: (concentration: 0.1mM) 0.842 ± 0.067; (concentration: 0.5mM) 0.855 ± 0.11; (concentration: 1mM) 1.07 ± 0.023; (concentration: 2mM) 1.01 ± 0.052; (concentration: 4mM) 1 ± 0.054; (concentration: 6mM) 1.07 ± 0.031. Moreover, the NP40-soluble protein abundance runs as follows: (concentration: 8mM) 1 ± 0.059; (concentration: 10mM) 1.12 ± 0.076.
In the case of UniProt Q9NWU1 and related entries, the NP40-soluble protein abundance runs as follows: (concentration: 0.1mM) 0.981 ± 0.12; (concentration: 0.5mM) 1.06 ± 0.049; (concentration: 1mM) 0.982 ± 0.059; (concentration: 2mM) 0.96 ± 0.1; (concentration: 4mM) 0.924 ± 0.14; (concentration: 6mM) 0.985 ± 0.09. Moreover, the NP40-soluble protein abundance worked out at 0.942 ± 0.038 (concentration: 8mM) and 0.907 ± 0.058 (concentration: 10mM).
On to WDR70 (UniProt Q9NW82), for which the NP40-soluble protein abundance runs as follows: (concentration: 0.1mM) 1.08 ± 0.076; (concentration: 0.5mM) 1.09 ± 0.064; (concentration: 1mM) 1.02 ± 0.065; (concentration: 2mM) 0.993 ± 0.068; (concentration: 4mM) 1.01 ± 0.08; (concentration: 6mM) 1.01 ± 0.062. The NP40-soluble protein abundance runs as follows: (concentration: 8mM) 1.04 ± 0.098; (concentration: 10mM) 0.976 ± 0.11.
As for COPS7A (UniProt Q9UBW8), the NP40-soluble protein abundance worked out at 0.953 ± 0.1 (concentration: 0.1mM); 0.912 ± 0.09 (concentration: 0.5mM); 1.05 ± 0.15 (concentration: 1mM); 1.09 ± 0.12 (concentration: 2mM); 1.09 ± 0.18 (concentration: 4mM); 1.05 ± 0.12 (concentration: 6mM). The NP40-soluble protein abundance was 0.985 ± 0.12 (concentration: 8mM) and 1.08 ± 0.18 (concentration: 10mM).
As to UniProt Q9NXN4 and related entries, the NP40-soluble protein abundance was found to be 1.1 ± 0.079 (concentration: 0.1mM); 1.04 ± 0.11 (concentration: 0.5mM); 1 ± 0.095 (concentration: 1mM); 0.959 ± 0.13 (concentration: 2mM); 0.992 ± 0.11 (concentration: 4mM); 0.949 ± 0.093 (concentration: 6mM). Further, the NP40-soluble protein abundance reads like this: (concentration: 8mM) 0.921 ± 0.1; (concentration: 10mM) 0.897 ± 0.1.
Take NUDT15 (UniProt Q9NV35): the NP40-soluble protein abundance stood at 0.931 ± 0.046 (concentration: 0.1mM); 0.917 ± 0.07 (concentration: 0.5mM); 1 ± 0.073 (concentration: 1mM); 0.937 ± 0.035 (concentration: 2mM); 0.919 ± 0.095 (concentration: 4mM); 0.9 ± 0.095 (concentration: 6mM). Besides, the NP40-soluble protein abundance runs as follows: (concentration: 8mM) 0.891 ± 0.11; (concentration: 10mM) 0.872 ± 0.067.
UniProt Q9UH99 and related entries: the NP40-soluble protein abundance (concentration: 0.1mM) came to 1.045 ± 0.0039; the NP40-soluble protein abundance (concentration: 0.5mM) came out at 1.14 ± 0.033; the NP40-soluble protein abundance (concentration: 1mM) is 1.09 ± 0.025; the NP40-soluble protein abundance (concentration: 2mM) is 1.11 ± 0.016; the NP40-soluble protein abundance (concentration: 4mM) is 1.09 ± 0.022; the NP40-soluble protein abundance (concentration: 6mM) turned out to be 1.11 ± 0.036. Also, the NP40-soluble protein abundance runs as follows: (concentration: 8mM) 1.13 ± 0.026; (concentration: 10mM) 1.11 ± 0.023.
On to UniProt Q9UGU0 and related entries, for which the NP40-soluble protein abundance (concentration: 0.1mM) stood at 1.03 ± 0.033; the NP40-soluble protein abundance (concentration: 0.5mM) came out at 1.01 ± 0.047; the NP40-soluble protein abundance (concentration: 1mM) came to 1.06 ± 0.036; the NP40-soluble protein abundance (concentration: 2mM) is 1.15 ± 0.04; the NP40-soluble protein abundance (concentration: 4mM) was 1.24 ± 0.11; the NP40-soluble protein abundance (concentration: 6mM) came to 1.34 ± 0.14. Besides, the NP40-soluble protein abundance is, setting by setting: (concentration: 8mM) 1.54 ± 0.3; (concentration: 10mM) 1.71 ± 0.43.
As to RAB21 (UniProt Q9UL25), the NP40-soluble protein abundance (concentration: 0.1mM) is 0.998 ± 0.058; the NP40-soluble protein abundance (concentration: 0.5mM) amounted to 0.967 ± 0.036; the NP40-soluble protein abundance (concentration: 1mM) was found to be 0.87 ± 0.016; the NP40-soluble protein abundance (concentration: 2mM) amounted to 0.862 ± 0.011; the NP40-soluble protein abundance (concentration: 4mM) was 0.837 ± 0.029; the NP40-soluble protein abundance (concentration: 6mM) is 0.84 ± 0.039. The NP40-soluble protein abundance reads like this: (concentration: 8mM) 0.812 ± 0.048; (concentration: 10mM) 0.813 ± 0.093.
Take AMFR (UniProt Q9UKV5): the NP40-soluble protein abundance was 1.03 ± 0.011 (concentration: 0.1mM); 1.03 ± 0.036 (concentration: 0.5mM); 1.06 ± 0.03 (concentration: 1mM); 1.06 ± 0.017 (concentration: 2mM); 1.04 ± 0.019 (concentration: 4mM); 1.01 ± 0.034 (concentration: 6mM). Moreover, the NP40-soluble protein abundance (concentration: 8mM) was 1.04 ± 0.1 and the NP40-soluble protein abundance (concentration: 10mM) came out at 1.05 ± 0.081.
On to UniProt Q9UBD5 and related entries, for which the NP40-soluble protein abundance reads like this: (concentration: 0.1mM) 0.981 ± 0.061; (concentration: 0.5mM) 1.06 ± 0.076; (concentration: 1mM) 0.957 ± 0.092; (concentration: 2mM) 1.04 ± 0.049; (concentration: 4mM) 0.998 ± 0.069; (concentration: 6mM) 1.04 ± 0.04. Moreover, the NP40-soluble protein abundance by setting is: (concentration: 8mM) 1.02 ± 0.1; (concentration: 10mM) 1.07 ± 0.018.
With AASS (UniProt Q9UDR5), the NP40-soluble protein abundance turned out to be 1.05 ± 0.026 (concentration: 0.1mM); 1.02 ± 0.11 (concentration: 0.5mM); 0.968 ± 0.065 (concentration: 1mM); 0.987 ± 0.086 (concentration: 2mM); 0.97 ± 0.091 (concentration: 4mM); 0.953 ± 0.11 (concentration: 6mM). Besides, the NP40-soluble protein abundance is 0.956 ± 0.062 (concentration: 8mM) and 0.89 ± 0.044 (concentration: 10mM).
With UniProt Q9UG63 and related entries, the NP40-soluble protein abundance reads like this: (concentration: 0.1mM) 1.1 ± 0.076; (concentration: 0.5mM) 1.11 ± 0.014; (concentration: 1mM) 1.07 ± 0.072; (concentration: 2mM) 1.35 ± 0.072; (concentration: 4mM) 1.83 ± 0.061; (concentration: 6mM) 2.15 ± 0.12. The NP40-soluble protein abundance turned out to be 2.39 ± 0.11 (concentration: 8mM) and 2.744 ± 0.018 (concentration: 10mM).
CDKN2AIP (UniProt Q9NXV6): the NP40-soluble protein abundance stood at 0.979 ± 0.033 (concentration: 0.1mM); 0.99 ± 0.058 (concentration: 0.5mM); 1.01 ± 0.019 (concentration: 1mM); 0.989 ± 0.035 (concentration: 2mM); 1.01 ± 0.023 (concentration: 4mM); 1 ± 0.031 (concentration: 6mM). Also, the NP40-soluble protein abundance (concentration: 8mM) amounted to 1.04 ± 0.029 and the NP40-soluble protein abundance (concentration: 10mM) is 1.04 ± 0.03.

The record behind these values is the supplement of paper PMC6411743.
